Source: US10865218B2, “Fluoride fluorescence probe” (The Procter & Gamble Company, priority 2017, dated 2020)

Assays:
Assay type in all cases: physicochemical
[1] = Concentration dependence of fluorescence and detection limit, MFP
[2] = Concentration dependence of fluorescence and detection limit, NaF
[3] = Selectivity to F− from different sources
[4] = Anion selectivity: fluorescence and absorption spectra with various anions; conditions: R3 10 μM
[5] = Fluoride ion sensing: fluorescence and absorption spectra of the probes with NaF
Procedure: The procedure for fluoride ion sensing is described. Stock solutions of inventive compounds R1-R3 (1 mM) are prepared in DMSO. The test solutions of the inventive compounds R1-R3 (10 μM) in […] DMSO-HEPES solution (3/2, v/v, 10 mM HEPES, pH=7.2) are prepared by placing stock solutions in 10-mL volumetric flask, and diluting with buffer solution. The resulting solutions are shaken well and incubated at room temperature for 50 minutes before recording the spectra.
Sodium fluoride (NaF) is used as a fluoride source for the fluoride ion sensing test. Stock solution of NaF (1 mM) is prepared in deionized water. The test solutions of the inventive compounds R1-R3 (10 μM) with NaF (500 μM) are prepared by placing stock solutions in 10-mL volumetric flask, and diluting with buffer solution. The resulting solutions are shaken well and incubated at room temperature for 50 minutes before recording the spectra.
UV-visible spectra are recorded on a Shimadzu UV-2550 spectrometer. Steady-state emission experiments at room temperature are measured on an Edinburgh instrument FLS-920 spectrometer with a Xe lamp as an excitation source. Unless otherwise noted, for all measurements, the excitation wavelength is 620 nm and the emission wavelength is collected from 640 to 780 nm.
The color changed from colorless to blue, which can be visible by naked eyes. […]

[6] = R3 10 μM, 50 min, DMSO-HEPES pH 7.2

In the case of `CN(C)c1ccc2c(c1)Sc1cc(N(C)C)ccc1N2C(=O)OCc1ccc(O[Si](C)(C)C(C)(C)C)cc1` [Compound R3, 4-((tert-butyldimethylsilyl)oxy)benzyl 3,7-bis(dimethylamino)-10H-phenothiazine-10-carboxylate], the “linear range of fluorescence intensity at 690 nm versus MFP concentration” value [1, 6] was 0 to 1000 µM, the “detection limit for MFP” value ([1]; calculated) was 1.23 µM and the “linear range of fluorescence intensity at 690 nm versus NaF concentration” value [2, 6] was 0 to 50 µM. For the same compound, the “detection limit for NaF” value ([2]; calculated) was 0.11 µM, the “fluorescence intensity change for MFP after 120 min compared with NaF after 30 min” value ([3]; 690 nm) was “still smaller than that for NaF after incubated for 30 min” and the “difference in fluorescent performance between inorganic fluoride sources NaF, KF and CsF” value ([3]; R3 10 μM, 500 μM fluoride, 50 min) was “no significant differences”. The “fluorescence intensity change induced by MFP relative to that induced from NaF” value ([3]; both incubated for 30 min, 690 nm) was 9.7%, the “fluorescence and absorbance response to F^−” value ([4]; 500 μM F^−, only F^− among the analytes) was “drastic increase of both fluorescence intensity and absorbance” and the “fluorescence and absorbance response to all other anions” value ([4]; 500 μM analyte (CO3^2−, PO4^3−, H2PO4^−, NO3^−, NO2^−, SO4^2−, SO3^2−, S2O3^2−, CH3COO^−, Cl^−, Br^−, I^−, N3^−, SCN^−, C2O4^2−, BSA)) was “almost no change on fluorescence or absorbance”. For the same compound, the “fluorescent intensity change at 690 nm with addition of F^−” value ([5]; R3 10 μM, different NaF concentrations and times, DMSO-HEPES pH 7.2) was “dependent on both the reaction time and concentration of NaF” and the “fluorescent intensity (at 690 nm) and absorbance (at 667 nm) change, compared among probes” value ([5]; after reaction with 500 μM NaF for 50 mM (so in the source)) was “much larger than that of R1 and R2”.
